Source: US20060121042A1
Results are given in words; binding and its absence hold for the method and conditions named. Some binding calls cover weakened binding; strength is not graded here. One block for each binder: values may come before it.

Protein sequences, listed by entry. Tags and fused reporters are not part of them. Lines headed by an entry give the natural chain unless they say otherwise; changes in a name come on top. Residues count along the entry.
UniProt P54764: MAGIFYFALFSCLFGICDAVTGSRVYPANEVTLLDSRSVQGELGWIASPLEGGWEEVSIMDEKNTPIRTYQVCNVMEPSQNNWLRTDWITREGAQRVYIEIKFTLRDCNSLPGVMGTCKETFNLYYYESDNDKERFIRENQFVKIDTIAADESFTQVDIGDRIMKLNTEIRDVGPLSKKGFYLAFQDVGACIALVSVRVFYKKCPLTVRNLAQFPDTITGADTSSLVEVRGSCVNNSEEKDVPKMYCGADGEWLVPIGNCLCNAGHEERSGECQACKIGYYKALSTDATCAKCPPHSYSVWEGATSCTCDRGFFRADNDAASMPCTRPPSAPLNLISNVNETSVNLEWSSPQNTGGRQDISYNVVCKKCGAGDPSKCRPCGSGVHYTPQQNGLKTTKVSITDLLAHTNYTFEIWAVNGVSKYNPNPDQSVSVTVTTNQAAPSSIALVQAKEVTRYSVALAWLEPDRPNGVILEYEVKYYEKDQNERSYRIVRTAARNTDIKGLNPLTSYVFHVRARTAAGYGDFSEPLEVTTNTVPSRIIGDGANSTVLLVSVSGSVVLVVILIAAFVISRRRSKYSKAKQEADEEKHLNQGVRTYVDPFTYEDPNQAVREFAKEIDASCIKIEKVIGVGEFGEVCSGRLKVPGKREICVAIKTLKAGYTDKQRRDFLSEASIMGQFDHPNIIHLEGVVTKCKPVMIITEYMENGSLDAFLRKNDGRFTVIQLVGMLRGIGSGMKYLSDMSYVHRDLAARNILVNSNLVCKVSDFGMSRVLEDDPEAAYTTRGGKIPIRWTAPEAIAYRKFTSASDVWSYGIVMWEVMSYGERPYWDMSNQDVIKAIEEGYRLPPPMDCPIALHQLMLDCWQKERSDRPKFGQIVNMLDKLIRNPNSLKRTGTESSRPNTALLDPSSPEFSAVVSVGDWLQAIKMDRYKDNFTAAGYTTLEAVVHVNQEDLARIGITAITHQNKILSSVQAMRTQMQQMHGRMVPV
UniProt Q03145, residues 26-535: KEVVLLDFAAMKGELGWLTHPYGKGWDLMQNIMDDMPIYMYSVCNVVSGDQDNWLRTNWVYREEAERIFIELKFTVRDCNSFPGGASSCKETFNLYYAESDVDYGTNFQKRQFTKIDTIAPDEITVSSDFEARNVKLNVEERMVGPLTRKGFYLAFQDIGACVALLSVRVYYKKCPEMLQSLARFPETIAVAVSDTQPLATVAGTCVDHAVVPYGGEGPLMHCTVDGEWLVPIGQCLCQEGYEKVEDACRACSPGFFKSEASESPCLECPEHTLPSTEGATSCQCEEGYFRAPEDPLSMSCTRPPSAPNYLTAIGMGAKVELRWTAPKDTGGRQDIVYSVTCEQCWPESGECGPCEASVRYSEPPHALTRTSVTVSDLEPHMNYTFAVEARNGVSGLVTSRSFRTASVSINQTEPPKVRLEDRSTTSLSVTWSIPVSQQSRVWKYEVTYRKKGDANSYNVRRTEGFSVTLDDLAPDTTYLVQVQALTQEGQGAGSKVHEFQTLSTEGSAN
UniProt Q03137, residues 20-547: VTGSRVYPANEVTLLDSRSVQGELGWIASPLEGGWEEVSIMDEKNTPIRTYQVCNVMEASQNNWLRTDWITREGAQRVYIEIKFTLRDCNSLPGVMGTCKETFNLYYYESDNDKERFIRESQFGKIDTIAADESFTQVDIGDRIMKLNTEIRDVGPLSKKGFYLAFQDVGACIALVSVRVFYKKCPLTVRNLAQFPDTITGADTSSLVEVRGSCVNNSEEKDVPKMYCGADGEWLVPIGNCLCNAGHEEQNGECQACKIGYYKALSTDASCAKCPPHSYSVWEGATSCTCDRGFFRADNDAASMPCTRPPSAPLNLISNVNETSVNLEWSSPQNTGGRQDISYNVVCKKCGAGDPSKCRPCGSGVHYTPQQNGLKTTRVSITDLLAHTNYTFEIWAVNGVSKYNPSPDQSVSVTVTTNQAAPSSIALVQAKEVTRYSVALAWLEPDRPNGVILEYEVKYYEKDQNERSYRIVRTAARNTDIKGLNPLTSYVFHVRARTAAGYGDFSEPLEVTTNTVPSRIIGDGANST
UniProt Q61772, residues 28-555: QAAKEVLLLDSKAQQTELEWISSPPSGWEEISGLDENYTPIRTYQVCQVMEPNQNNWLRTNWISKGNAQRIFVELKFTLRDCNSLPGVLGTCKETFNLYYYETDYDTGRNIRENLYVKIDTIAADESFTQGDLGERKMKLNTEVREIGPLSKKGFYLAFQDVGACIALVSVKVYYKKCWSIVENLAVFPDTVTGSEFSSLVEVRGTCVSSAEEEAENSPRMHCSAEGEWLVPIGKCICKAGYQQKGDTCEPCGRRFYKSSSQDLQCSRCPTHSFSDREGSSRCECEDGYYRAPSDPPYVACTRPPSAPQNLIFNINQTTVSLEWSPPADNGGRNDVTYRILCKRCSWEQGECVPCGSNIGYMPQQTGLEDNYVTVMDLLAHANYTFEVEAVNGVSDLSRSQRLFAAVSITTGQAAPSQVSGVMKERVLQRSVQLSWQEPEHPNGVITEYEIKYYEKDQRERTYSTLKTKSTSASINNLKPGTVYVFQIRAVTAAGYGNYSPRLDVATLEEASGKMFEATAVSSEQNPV

Legend:
[1] = biological target: human EphA4 (construct not given) (human) (UniProt P54764); assay: capture ELISA, 25 ng/well sheep anti-human Fd
[2] = biological target: T1, rmEph B6 (mouse) (UniProt O08644); assay: ELISA
T1 sequence (receptor, looked up): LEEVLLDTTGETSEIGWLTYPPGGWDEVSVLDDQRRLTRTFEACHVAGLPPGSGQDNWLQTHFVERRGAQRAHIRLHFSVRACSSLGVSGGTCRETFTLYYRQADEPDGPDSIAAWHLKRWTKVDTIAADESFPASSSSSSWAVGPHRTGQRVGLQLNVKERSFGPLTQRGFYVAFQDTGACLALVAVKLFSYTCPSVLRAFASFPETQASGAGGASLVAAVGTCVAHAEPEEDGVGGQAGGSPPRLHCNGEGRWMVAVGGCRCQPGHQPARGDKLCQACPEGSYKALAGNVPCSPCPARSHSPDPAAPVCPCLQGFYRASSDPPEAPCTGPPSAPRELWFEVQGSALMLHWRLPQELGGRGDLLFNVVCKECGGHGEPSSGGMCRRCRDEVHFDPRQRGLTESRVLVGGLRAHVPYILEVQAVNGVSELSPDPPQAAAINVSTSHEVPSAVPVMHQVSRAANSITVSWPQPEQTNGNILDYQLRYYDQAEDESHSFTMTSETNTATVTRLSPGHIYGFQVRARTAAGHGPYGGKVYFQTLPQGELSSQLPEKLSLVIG

[3] = biological target: T2, rmEph B4 (mouse) (UniProt P54761); assay: ELISA
T2 sequence (receptor, looked up): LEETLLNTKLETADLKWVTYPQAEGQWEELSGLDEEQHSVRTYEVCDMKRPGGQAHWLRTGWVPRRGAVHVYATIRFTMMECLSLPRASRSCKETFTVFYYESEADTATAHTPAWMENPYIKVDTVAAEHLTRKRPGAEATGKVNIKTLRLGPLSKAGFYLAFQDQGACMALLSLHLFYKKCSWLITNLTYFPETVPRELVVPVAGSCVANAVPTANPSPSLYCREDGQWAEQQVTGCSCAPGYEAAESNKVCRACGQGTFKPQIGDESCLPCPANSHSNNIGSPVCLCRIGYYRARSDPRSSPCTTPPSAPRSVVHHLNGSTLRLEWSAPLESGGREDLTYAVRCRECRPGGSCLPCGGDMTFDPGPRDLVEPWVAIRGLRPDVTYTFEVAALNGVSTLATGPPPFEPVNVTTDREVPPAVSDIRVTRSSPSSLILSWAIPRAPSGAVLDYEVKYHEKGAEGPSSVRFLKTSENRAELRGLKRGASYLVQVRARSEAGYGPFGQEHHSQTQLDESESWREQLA

[4] = biological target: murine EphA2 (mouse) (UniProt Q03145); assay: ELISA titration, Fab on immobilized antigen
[5] = biological target: Human EphA4-His fusion protein (human) (UniProt P54764); assay: secondary screen: Activity ELISA on coated human EphA4-His, normalised by Fab quantification ELISA
[6] = biological target: Human EphA4-His fusion protein (human) (UniProt P54764); assay: activity ELISA, Fab on coated antigen
[7] = biological target: T3, r human EphA1 (human) (UniProt P21709); assay: activity ELISA, Fab on coated antigen
T3 sequence (receptor-Fc fusion, looked up): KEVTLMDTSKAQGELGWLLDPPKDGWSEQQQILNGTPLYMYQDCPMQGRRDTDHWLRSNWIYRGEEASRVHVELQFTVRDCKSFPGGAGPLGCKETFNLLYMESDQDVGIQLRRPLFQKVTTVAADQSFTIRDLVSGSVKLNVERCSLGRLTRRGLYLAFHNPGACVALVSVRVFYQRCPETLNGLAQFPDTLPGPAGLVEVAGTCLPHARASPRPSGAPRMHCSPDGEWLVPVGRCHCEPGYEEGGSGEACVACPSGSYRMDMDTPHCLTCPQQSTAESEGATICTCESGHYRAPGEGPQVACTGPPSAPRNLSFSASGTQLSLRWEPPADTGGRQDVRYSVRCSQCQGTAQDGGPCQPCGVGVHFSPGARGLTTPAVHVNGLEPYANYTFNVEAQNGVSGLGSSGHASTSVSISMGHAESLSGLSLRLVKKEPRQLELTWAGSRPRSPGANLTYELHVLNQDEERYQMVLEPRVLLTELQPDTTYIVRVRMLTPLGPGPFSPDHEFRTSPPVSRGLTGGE

[8] = biological target: T4, r murine EphA3 (mouse) (UniProt P29319); assay: activity ELISA, Fab on coated antigen
T4 sequence (receptor-Fc fusion, looked up): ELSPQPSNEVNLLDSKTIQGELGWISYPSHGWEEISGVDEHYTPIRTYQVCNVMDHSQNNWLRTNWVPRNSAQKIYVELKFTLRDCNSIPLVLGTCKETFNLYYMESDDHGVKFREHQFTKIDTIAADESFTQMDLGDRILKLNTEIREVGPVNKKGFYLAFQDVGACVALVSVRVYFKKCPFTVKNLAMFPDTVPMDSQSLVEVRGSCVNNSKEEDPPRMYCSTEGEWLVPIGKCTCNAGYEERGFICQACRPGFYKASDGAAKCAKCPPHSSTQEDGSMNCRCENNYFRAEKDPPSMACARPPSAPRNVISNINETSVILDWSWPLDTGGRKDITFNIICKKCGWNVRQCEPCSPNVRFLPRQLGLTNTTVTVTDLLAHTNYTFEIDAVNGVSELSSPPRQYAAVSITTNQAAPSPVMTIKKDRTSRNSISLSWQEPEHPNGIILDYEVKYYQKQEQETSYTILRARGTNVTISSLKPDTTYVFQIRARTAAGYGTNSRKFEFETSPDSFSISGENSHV

[9] = biological target: r murine EphA4 (mouse) (UniProt Q03137); assay: activity ELISA, Fab on coated antigen
[10] = biological target: murine EphA2 (mouse) (UniProt Q03145); assay: activity ELISA, Fab on coated antigen
[11] = biological target: r murine EphA7 (mouse) (UniProt Q61772); assay: activity ELISA, Fab on coated antigen
[12] = biological target: Human EphA4-His fusion protein (human) (UniProt P54764); assay: ELISA, Fab titration on EphA4 (FIG. 7)
[13] = biological target: Human EphA4-His fusion protein (human) (UniProt P54764); assay: activity ELISA, Fab periplasmic extract on coated human EphA4-His
[14] = biological target: Human EphA4-His fusion protein (human) (UniProt P54764); assay: Activity ELISA on coated human EphA4-His, normalised by Fab quantification ELISA

B3: 1A5 (Fab, V domains shown)
VH: QVQLLQSGAEVKKPGASVKVPCKASGYTFTSYAMSWVRQAPGQGLEWMGWINTNTGNPTYAQGFTGRFVFSLDTSVSTAYLQISSLKAEDTAVYYCARVRTTPYGDGMDVWGQGTLVTVSS
VL: EIVLTQSPATLSVSPGERATLSCRASQSVSSNLAWYQQKPGQAPRLLIYGASTRATGIPDRFSASGSGTDFTLTISRVEPEDFAVYYCQQYGSSWTFGQGTKVEIK
binding [1]: binds

B6: 2F1 (Fab, V domains shown)
VH: QVQLLQSGAEVKKPGASVKVPCKASGYTFTSYAMSWVRQAPGQGLEWMGWINTNTGNPTYAQGFTGRFVFSLDTSVSTAYLQISSLKAEDTAVYYCARVRTTPYGDGMDVWGQGTLVTVSS
VL: EIVLTQSPATLSVSPGERATLSCRASQSVSSNLAWYQQKPGQAPRLLIYGASTRATGIPDRFSASGSGTDFTLTISRVEPEDFAVYYCQQYGSSWTFGQGTKVEIK
binding [1]: binds

B7: 8B4 Fab (affinity optimized combinatorial variant of Fab20) (Fab, V domains shown)
VH: QVQLLQSGAEVKKPGASVKVPCKASGYTFTSRAMSWVRQAPGQGLEWMGWINTNTGNPTYAQGFTGRFVFSLDTSVSTAYLQISSLKAEDTAVYYCARVRLTVYGDGMDVWGQGTLVTVSS
VL: EIVLTQSPATLSVSPGERATLSCRASQSVSSNPAWYQQKPGQAPRLLIYGLSTRATGIPDRFSASGSGTDFTLTISRVEPEDFAVYYCQQYGPSWTFGQGTKVEIK
binding [4]: binds
binding [5]: binds
binding [6]: binds
binding [7]: binds
binding [8]: binds
binding [9]: binds
binding [10]: binds
binding [11]: binds

B8: 2B5 (Fab, V domains shown)
VH: QVQLLQSGAEVKKPGASVKVPCKASGYTFTSYAMSWVRQAPGQGLEWMGWINTNTGNPTYAQGFTGRFVFSLDTSVSTAYLQISSLKAEDTAVYYCARVRTTPYGDGMDVWGQGTLVTVSS
VL: EIVLTQSPATLSVSPGERATLSCRASQSVSSNLAWYQQKPGQAPRLLIYGASTRATGIPDRFSASGSGTDFTLTISRVEPEDFAVYYCQQYGSSWTFGQGTKVEIK
binding [1]: binds

B9: 11G6 Fab (affinity optimized CDR3 heavy variant of Fab20) (Fab, V domains shown)
VH: QVQLLQSGAEVKKPGASVKVPCKASGYTFTSYAMSWVRQAPGQGLEWMGWINTNTGNPTYAQGFTGRFVFSLDTSVSTAYLQISSLKAEDTAVYYCARVRFTVYGDGMDVWGQGTLVTVSS
VL: EIVLTQSPATLSVSPGERATLSCRASQSVSSNLAWYQQKPGQAPRLLIYGASTRATGIPDRFSASGSGTDFTLTISRVEPEDFAVYYCQQYGSSWTFGQGTKVEIK
binding [12]: binds
binding [13]: binds
binding [14]: binds

Now from value to binder:

binding [1]: binds
B1: 10D11 (Fab, V domains shown)
VH: QVQLLQSGAEVKKPGASVKVPCKASGYTFTSYAMSWVRQAPGQGLEWMGWINTNTGNPTYAQGFTGRFVFSLDTSVSTAYLQISSLKAEDTAVYYCARVRLTVYGDGMDVWGQGTLVTVSS
VL: EIVLTQSPATLSVSPGERATLSCRASQSVSSNLAWYQQKPGQAPRLLIYGASTRATGIPDRFSASGSGTDFTLTISRVEPEDFAVYYCQQYGSSWTFGQGTKVEIK

binding [2]: no binding
binding [3]: no binding
B2: GEA44 11H1 (antibody, V domains shown)
VH: QVQLLQSGAEVKKPGASVKVPCKASGYTFTSYAMSWVRQAPGQGLEWMGWINTNTGNPTYAQGFTGRFVFSLDTSVSTAYLQISSLKAEDTAVYYCARVRLTVYGDGMDVWGQGTLVTVSS
VL: EIVLTQSPATLSVSPGERATLSCRASQSVSSNLAWYQQKPGQAPRLLIYGASTRATGIPDRFSASGSGTDFTLTISRVEPEDFAVYYCQQYGSSWTFGQGTKVEIK

binding [1]: binds
B4: 6F9 (Fab, V domains shown)
VH: QVQLLQSGAEVKKPGASVKVPCKASGYTFTSYAMSWVRQAPGQGLEWMGWINTNTGNPTYAQGFTGRFVFSLDTSVSTAYLQISSLKAEDTAVYYCARVRTTPYGDGMDVWGQGTLVTVSS
VL: EIVLTQSPATLSVSPGERATLSCRASQSVSSNLAWYQQKPGQAPRLLIYGASTRATGIPDRFSASGSGTDFTLTISRVEPEDFAVYYCQQYGSSWTFGQGTKVEIK

binding [3]: no binding
B5: human Anti-Eph Monoclonal Antibody GEA44 (antibody, V domains shown)
VH: QVQLLQSGAEVKKPGASVKVPCKASGYTFTSYAMSWVRQAPGQGLEWMGWINTNTGNPTYAQGFTGRFVFSLDTSVSTAYLQISSLKAEDTAVYYCARVRTTVYGDGMDVWGQGTLVTVSS
VL: EIVLTQSPATLSVSPGERATLSCRASQSVSSNLAWYQQKPGQAPRLLIYGASTRATGIPDRFSASGSGTDFTLTISRVEPEDFAVYYCQQYGSSWTFGQGTKVEIK
